The values below come from PMC9102673.

No constants are given. Whether binding was seen depends on the method and setting. In cells and extracts the contact can be indirect. A result given as binding can be weak or reduced; the word gives no strength.

The target of this assay is DNA damage-inducible transcript 4 (DDIT4) (not stated (human or mouse cDNA cloned)). Nature of the assay: co-IP; DDIT4-overexpressing SK-N-SH cells treated with or without sodium arsenite; lysate in PLB buffer (10 mM HEPES pH 7.0, 100 mM KCl, 5 mM MgCl2, 0.5% NP-40); anti-DDIT4 antibody or IgG control, Protein A/G magnetic beads, washes with NT2 buffer (250 mM NaCl); immunoblot. On the technique in general: Immunoblotting shows a protein as a band on a membrane.

B1: E2F7 (protein, UniProt Q96AV8 1-911)
chain: MEVNCLTLKDLISPRQPRLDFAVEDGENAQKENIFVDRSRMAPKTPIKNEPIDLSKQKKFTPERNPITPVKFVDRQQAEPWTPTANLKMLISAASPDIRDREKKKGLFRPIENKDDAFTDSLQLDVVGDSAVDEFEKQRPSRKQKSLGLLCQKFLARYPSYPLSTEKTTISLDEVAVSLGVERRRIYDIVNVLESLHLVSRVAKNQYGWHGRHSLPKTLRNLQRLGEEQKYEEQMAYLQQKELDLIDYKFGERKKDGDPDSQEQQLLDFSEPDCPSSSANSRKDKSLRIMSQKFVMLFLVSKTKIVTLDVAAKILIEESQDAPDHSKFKTKVRRLYDIANVLTSLALIKKVHVTEERGRKPAFKWIGPVDFSSSDEELVDVSASVLPELKRETYGQIQVCAKQKLARHGSFNTVQASERIQRKVNSEPSSPYREEQGSGGYSLEIGSLAAVYRQKIEDNSQGKAFASKRVVPPSSSLDPVAPFPVLSVDPEYCVNPLAHPVFSVAQTDLQAFSMQNGLNGQVDVSLASAASAVESLKPALLAGQPLVYVPSASLFMLYGSLQEGPASGSGSERDDRSSEAPATVELSSAPSAQKRLCEERKPQEEDEPATKRQSREYEDGPLSLVMPKKPSDSTDLASPKTMGNRASIPLKDIHVNGQLPAAEEISGKATANSLVSSEWGNPSRNTDVEKPSKENESTKEPSLLQYLCVQSPAGLNGFNVLLSGSQTPPTVGPSSGQLPSFSVPCMVLPSPPLGPFPVLYSPAMPGPVSSTLGALPNTGPVNFSLPGLGSIAQLLVGPTAVVNPKSSTLPSADPQLQSQPSLNLSPVMSRSHSVVQQPESPVYVGHPVSVVKLHQSPVPVTPKSIQRTHRETFFKTPGSLGDPVLKRRERNQSRNTSSAQRRLEIPSGGAD
B1: the binding result was “binds”.

B2: ectodermal-neural cortex 1 (ENC1) (protein, UniProt O14682 1-589)
chain: MSVSVHENRKSRASSGSINIYLFHKSSYADSVLTHLNLLRQQRLFTDVLLHAGNRTFPCHRAVLAACSRYFEAMFSGGLKESQDSEVNFDNSIHPEVLELLLDYAYSSRVIINEENAESLLEAGDMLEFQDIRDACAEFLEKNLHPTNCLGMLLLSDAHQCTKLYELSWRMCLSNFQTIRKNEDFLQLPQDMVVQLLSSEELETEDERLVYESAINWISYDLKKRYCYLPELLQTVRLALLPAIYLMENVAMEELITKQRKSKEIVEEAIRCKLKILQNDGVVTSLCARPRKTGHALFLLGGQTFMCDKLYLVDQKAKEIIPKADIPSPRKEFSACAIGCKVYITGGRGSENGVSKDVWVYDTLHEEWSKAAPMLVARFGHGSAELKHCLYVVGGHTAATGCLPASPSVSLKQVEHYDPTINKWTMVAPLREGVSNAAVVSAKLKLFAFGGTSVSHDKLPKVQCYDQCENRWTVPATCPQPWRYTAAAVLGNQIFIMGGDTEFSACSAYKFNSETYQWTKVGDVTAKRMSCHAVASGNKLYVVGGYFGIQRCKTLDCYDPTLDVWNSITTVPYSLIPTAFVSTWKHLPS
Turning to B2, the binding entry is listed as “binds”.
